Laboratory results from PMC5535836.
These are yes or no findings as the source states them, for the method shown. Binding seen in cells or lysates may run through a third protein. Some binding calls cover weakened binding; strength is not graded here.

Protein sequences, listed by entry. Tags and fused reporters are not part of them.
UniProt P10415: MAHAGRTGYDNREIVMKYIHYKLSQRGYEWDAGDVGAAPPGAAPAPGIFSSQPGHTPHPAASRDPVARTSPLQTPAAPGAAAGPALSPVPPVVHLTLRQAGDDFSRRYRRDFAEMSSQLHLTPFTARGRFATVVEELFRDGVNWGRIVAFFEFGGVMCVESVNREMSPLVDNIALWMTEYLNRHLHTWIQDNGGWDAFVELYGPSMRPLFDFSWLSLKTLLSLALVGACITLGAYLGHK
UniProt Q14457: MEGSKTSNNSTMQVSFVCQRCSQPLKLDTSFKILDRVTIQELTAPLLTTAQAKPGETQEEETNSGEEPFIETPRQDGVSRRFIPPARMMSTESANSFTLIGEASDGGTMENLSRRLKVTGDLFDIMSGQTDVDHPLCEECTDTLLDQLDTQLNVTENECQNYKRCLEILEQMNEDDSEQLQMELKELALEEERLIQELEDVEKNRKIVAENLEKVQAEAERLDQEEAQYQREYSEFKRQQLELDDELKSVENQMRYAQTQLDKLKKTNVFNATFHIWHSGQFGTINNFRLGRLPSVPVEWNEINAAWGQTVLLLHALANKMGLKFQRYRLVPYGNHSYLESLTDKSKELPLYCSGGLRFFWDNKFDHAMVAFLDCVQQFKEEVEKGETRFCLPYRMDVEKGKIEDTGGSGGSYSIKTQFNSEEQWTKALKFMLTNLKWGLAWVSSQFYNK

Target: Bcl-2 (human (endogenous in NPC-TW01)) (UniProt P10415)
Experiment: co-IP; lysates of NPC-TW01 cells treated with 0, 100 or 200 µM capsaicin for 24 h; precipitated with anti-Bcl-2 antibodies (N19) and protein A/G plus agarose beads; Western blotting with anti-Beclin-1 or anti-Bcl-2 antibodies

binding: binds
Substance: Beclin-1 (from UniProt Q14457 1-450)
